Measured values taken from patent US20160244491A1.
These are yes or no findings as the source states them, for the method shown. Some binding calls cover weakened binding; strength is not graded here. Each block holds one binder with its values, some of them ahead of it.

By UniProt entry, the sequences of proteins in these tests, tags left out. Where a name states a change or a piece, a line headed by the entry shows the natural chain unless it says otherwise.
UniProt P06756: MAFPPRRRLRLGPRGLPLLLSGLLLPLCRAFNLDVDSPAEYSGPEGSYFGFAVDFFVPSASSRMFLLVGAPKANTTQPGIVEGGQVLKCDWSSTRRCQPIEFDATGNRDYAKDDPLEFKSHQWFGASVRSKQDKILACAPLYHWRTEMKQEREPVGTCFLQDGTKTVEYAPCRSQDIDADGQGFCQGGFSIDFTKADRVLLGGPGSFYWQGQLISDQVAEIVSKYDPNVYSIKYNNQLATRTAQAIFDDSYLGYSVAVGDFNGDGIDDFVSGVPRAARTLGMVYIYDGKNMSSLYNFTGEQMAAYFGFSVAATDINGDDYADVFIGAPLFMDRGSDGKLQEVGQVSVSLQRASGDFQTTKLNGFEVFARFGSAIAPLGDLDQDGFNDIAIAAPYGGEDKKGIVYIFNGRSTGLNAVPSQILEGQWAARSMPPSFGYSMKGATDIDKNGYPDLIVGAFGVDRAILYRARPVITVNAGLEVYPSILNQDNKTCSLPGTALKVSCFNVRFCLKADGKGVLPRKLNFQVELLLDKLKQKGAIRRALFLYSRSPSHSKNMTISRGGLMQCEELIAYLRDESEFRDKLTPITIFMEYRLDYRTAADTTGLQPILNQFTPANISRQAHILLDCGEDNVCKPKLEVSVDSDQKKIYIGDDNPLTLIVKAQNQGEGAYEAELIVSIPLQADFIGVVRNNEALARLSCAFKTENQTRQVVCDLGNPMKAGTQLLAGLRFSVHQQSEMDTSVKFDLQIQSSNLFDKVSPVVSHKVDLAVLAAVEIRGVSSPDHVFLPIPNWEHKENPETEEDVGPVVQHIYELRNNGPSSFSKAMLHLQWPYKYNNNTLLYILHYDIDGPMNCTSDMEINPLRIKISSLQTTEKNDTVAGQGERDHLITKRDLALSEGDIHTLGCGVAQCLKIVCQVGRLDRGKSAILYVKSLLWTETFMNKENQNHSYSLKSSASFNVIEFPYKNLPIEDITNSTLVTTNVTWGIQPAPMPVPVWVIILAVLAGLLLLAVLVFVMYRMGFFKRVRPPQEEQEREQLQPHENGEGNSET
UniProt P08648: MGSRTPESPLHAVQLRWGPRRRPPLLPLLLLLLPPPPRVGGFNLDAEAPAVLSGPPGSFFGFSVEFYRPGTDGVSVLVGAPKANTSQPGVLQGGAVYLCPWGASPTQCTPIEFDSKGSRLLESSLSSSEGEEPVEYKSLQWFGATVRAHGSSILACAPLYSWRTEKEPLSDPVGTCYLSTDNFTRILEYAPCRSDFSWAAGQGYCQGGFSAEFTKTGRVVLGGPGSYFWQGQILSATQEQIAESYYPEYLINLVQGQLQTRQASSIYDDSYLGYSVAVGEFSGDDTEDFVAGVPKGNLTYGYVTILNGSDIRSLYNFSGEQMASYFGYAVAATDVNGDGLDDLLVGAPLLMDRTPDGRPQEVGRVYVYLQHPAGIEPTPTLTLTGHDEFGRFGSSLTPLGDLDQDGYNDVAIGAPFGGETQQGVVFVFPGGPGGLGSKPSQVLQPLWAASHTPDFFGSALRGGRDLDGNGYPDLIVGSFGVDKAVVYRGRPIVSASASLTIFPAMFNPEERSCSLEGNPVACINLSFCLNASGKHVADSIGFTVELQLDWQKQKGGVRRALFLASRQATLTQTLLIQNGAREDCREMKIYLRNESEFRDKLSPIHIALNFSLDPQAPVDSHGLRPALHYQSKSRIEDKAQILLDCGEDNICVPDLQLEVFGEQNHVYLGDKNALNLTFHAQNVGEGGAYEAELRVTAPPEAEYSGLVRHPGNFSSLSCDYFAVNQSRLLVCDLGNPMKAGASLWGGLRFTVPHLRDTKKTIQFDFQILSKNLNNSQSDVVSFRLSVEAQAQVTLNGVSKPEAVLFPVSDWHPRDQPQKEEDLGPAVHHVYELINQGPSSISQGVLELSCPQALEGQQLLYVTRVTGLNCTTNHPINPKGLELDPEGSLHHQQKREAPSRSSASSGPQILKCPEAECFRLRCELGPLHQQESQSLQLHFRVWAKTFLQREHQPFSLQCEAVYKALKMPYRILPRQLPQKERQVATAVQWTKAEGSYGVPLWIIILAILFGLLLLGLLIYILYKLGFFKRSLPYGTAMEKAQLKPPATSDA

What was measured:
Integrin αVβ3 = Integrin αVβ3 (UniProt P06756); test: ELISA on coated integrin αVβ3
Integrin α5β1 = Integrin α5β1 (UniProt P08648); test: ELISA on coated integrin α5β1

B1: 228-460 K423Q (ligand)
chain: FLQLNEIRNVKHDGIPAECTTIYNRGEHTSGMYAIRPSNSQVFHVYCDVISGSPWTLIQHRIDGSQNFNETWENYKYGFGRLDGEFWLGLEKIYSIVKQSNYVLRIELEDWKDNKHYIEYSFYLGNHETNYTLHLVAITGNVPNAIPENKDLVFSTWDHKAKGHFNCPEGYSGGWWWHDECGENNLNGKYNKPRAQSKPERRRGLSWKSQNGRLYSIKSTKMLIHPTDSESFE
binding (Integrin αVβ3): binds
binding (Integrin α5β1): binds

B2: 233-460 K423Q (ligand)
chain: EIRNVKHDGIPAECTTIYNRGEHTSGMYAIRPSNSQVFHVYCDVISGSPWTLIQHRIDGSQNFNETWENYKYGFGRLDGEFWLGLEKIYSIVKQSNYVLRIELEDWKDNKHYIEYSFYLGNHETNYTLHLVAITGNVPNAIPENKDLVFSTWDHKAKGHFNCPEGYSGGWWWHDECGENNLNGKYNKPRAQSKPERRRGLSWKSQNGRLYSIKSTKMLIHPTDSESFE
binding (Integrin αVβ3): binds
binding (Integrin α5β1): binds

B4: 225-460 K423Q (ligand)
chain: TTPFLQLNEIRNVKHDGIPAECTTIYNRGEHTSGMYAIRPSNSQVFHVYCDVISGSPWTLIQHRIDGSQNFNETWENYKYGFGRLDGEFWLGLEKIYSIVKQSNYVLRIELEDWKDNKHYIEYSFYLGNHETNYTLHLVAITGNVPNAIPENKDLVFSTWDHKAKGHFNCPEGYSGGWWWHDECGENNLNGKYNKPRAQSKPERRRGLSWKSQNGRLYSIKSTKMLIHPTDSESFE
binding (Integrin αVβ3): binds
binding (Integrin α5β1): binds

The remaining lines, values ahead:

binding (Integrin αVβ3): binds
binding (Integrin α5β1): binds
B3: 241-460 K423Q (ligand)
chain: GIPAECTTIYNRGEHTSGMYAIRPSNSQVFHVYCDVISGSPWTLIQHRIDGSQNFNETWENYKYGFGRLDGEFWLGLEKIYSIVKQSNYVLRIELEDWKDNKHYIEYSFYLGNHETNYTLHLVAITGNVPNAIPENKDLVFSTWDHKAKGHFNCPEGYSGGWWWHDECGENNLNGKYNKPRAQSKPERRRGLSWKSQNGRLYSIKSTKMLIHPTDSESFE

binding (Integrin αVβ3): binds
binding (Integrin α5β1): binds
B5: 242-460 K423Q (ligand)
chain: IPAECTTIYNRGEHTSGMYAIRPSNSQVFHVYCDVISGSPWTLIQHRIDGSQNFNETWENYKYGFGRLDGEFWLGLEKIYSIVKQSNYVLRIELEDWKDNKHYIEYSFYLGNHETNYTLHLVAITGNVPNAIPENKDLVFSTWDHKAKGHFNCPEGYSGGWWWHDECGENNLNGKYNKPRAQSKPERRRGLSWKSQNGRLYSIKSTKMLIHPTDSESFE
